We go through four sequences from article PMC6451097.

The chains behind the UniProt entries cited, without tags or fusion partners. Residues count along the entry.
UniProt P67809, 1-180: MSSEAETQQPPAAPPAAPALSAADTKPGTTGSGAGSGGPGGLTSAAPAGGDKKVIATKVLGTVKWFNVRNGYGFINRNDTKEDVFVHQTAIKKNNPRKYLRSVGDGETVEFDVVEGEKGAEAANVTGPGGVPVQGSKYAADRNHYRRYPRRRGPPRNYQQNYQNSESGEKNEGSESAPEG
UniProt P67809, 1-180 E117C: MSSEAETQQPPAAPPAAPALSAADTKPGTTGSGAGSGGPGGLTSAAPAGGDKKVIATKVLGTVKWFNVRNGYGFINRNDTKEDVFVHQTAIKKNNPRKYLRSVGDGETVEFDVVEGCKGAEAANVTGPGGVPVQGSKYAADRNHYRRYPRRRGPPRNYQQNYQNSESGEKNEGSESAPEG
UniProt P67809, 1-180 T108C: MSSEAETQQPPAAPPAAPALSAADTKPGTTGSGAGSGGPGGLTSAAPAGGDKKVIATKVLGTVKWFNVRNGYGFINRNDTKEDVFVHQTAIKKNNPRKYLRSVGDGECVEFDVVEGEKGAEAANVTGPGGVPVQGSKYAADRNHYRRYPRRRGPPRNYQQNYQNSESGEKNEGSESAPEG
UniProt P67809, 1-180 T62C: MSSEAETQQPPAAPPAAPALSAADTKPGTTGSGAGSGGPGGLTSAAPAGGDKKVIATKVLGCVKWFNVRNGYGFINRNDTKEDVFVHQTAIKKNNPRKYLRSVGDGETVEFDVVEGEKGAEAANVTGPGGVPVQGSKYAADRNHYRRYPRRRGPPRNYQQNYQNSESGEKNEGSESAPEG
UniProt P67809, 1-180 T89C: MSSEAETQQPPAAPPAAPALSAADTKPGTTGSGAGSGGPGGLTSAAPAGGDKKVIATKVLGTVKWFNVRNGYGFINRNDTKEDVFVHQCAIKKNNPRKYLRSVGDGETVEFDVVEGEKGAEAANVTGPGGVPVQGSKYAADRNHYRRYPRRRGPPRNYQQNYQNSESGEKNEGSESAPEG
UniProt P67809, 1-180 V114C: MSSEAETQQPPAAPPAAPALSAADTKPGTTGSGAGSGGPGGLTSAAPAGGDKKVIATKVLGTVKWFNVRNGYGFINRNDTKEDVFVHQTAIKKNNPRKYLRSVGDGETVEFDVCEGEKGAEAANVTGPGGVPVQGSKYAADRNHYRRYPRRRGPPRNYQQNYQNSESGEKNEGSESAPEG

The target of series [1] is YB-1C (Homo sapiens) (UniProt P67809). As to the kind of experiment: NMR HSQC. As to conditions: NMR: 100 uM protein, 1:1 oligo, 298 K (RNA 298 and 303 K), recombinant protein, residues 1-180, protein details: His-tag (pET22b), untagged version also used.
For series [2], the target named is YB-1C E117C-MTSL (Homo sapiens) (UniProt P67809). Put plainly: NMR PRE. The settings on record: NMR: 100 uM protein, 1:1 oligo, 298 K (RNA 298 and 303 K); recombinant protein; residues 1-180; protein details: MTSL spin label; single-stranded DNA.
Series [3] has as its target YB-1C T108C-MTSL (Homo sapiens) (UniProt P67809). Put plainly: NMR PRE. As to conditions: NMR: 100 uM protein, 1:1 oligo, 298 K (RNA 298 and 303 K); recombinant protein; residues 1-180; protein details: MTSL spin label; single-stranded DNA.
Series [4] addresses YB-1C T62C-MTSL (Homo sapiens) (UniProt P67809). Put plainly: NMR PRE. The settings on record: NMR: 100 uM protein, 1:1 oligo, 298 K (RNA 298 and 303 K); recombinant protein; residues 1-180; protein details: MTSL spin label; single-stranded DNA.
Series [5] deals with YB-1C T89C-MTSL (Homo sapiens) (UniProt P67809). Put plainly: NMR PRE. The settings on record: NMR: 100 uM protein, 1:1 oligo, 298 K (RNA 298 and 303 K); recombinant protein; residues 1-180; protein details: MTSL spin label; single-stranded DNA.
The target in series [6] is YB-1C V114C-MTSL (Homo sapiens) (UniProt P67809). Put plainly: NMR PRE. The settings on record: NMR: 100 uM protein, 1:1 oligo, 298 K (RNA 298 and 303 K); recombinant protein; residues 1-180; protein details: MTSL spin label; single-stranded DNA.
Series [7] deals with YB-1C (Homo sapiens) (UniProt P67809). As to the kind of experiment: SAXS. The settings on record: 7.0 uM ssDNA; recombinant protein; residues 1-180; protein details: His-tag (pET22b), untagged version also used; single-stranded DNA.

The exact form of at least one protein or probe is not confirmed. At least one verdict was read from the data and is not stated in words by the source.

With UUUUUUUUUUUUUUUUUUUUUUUUUUUUUU [rU30], in the series with YB-1C (Homo sapiens) [1] (1:1, peak broadening), the binding result is recorded as “binds”.
On to CCCCCCCCCC [dC10], for which the binding result in series [2], in series [3], in series [4], in series [5] and in series [6] was “binds” each time.
In the case of CCCCCCCCCC [rC10], the binding result in the series with YB-1C (Homo sapiens) [1] (1:1) is reported as “binds”.
With TTTTTTTTTTTTTTTTTTTTTTTTTTTTTT [dT30], the binding result with YB-1C (Homo sapiens) [7] is given as “binds”; with YB-1C (Homo sapiens) [1] (1:1, peak broadening, single-stranded DNA) it was “binds”.
